No constants are given. Whether binding was seen depends on the method and setting. In cells and extracts the contact can be indirect. A yes stands for co-enrichment or nearness to the bait. Other partners may have been found. For some assays here: Tags and fused reporters may be left off the sequences shown. One block for each molecule: values may come before it.
Columns and labels:
[1] = biological target: T1, Flag-HA-labeled FKBP9 (FKBP9-HA) (human) (UniProt O95302); experiment: affinity purification with mass spectrometry; HA antibody co-immunoprecipitation from lysate of T98G cells infected with FKBP9-HA or EGFP-HA lentivirus; SDS-PAGE, silver staining, framed gel bands identified by LC-MS/MS; buffer 50 mM Tris-HCl pH 7.4, 150 mM NaCl, 3 mM EDTA, 0.5% Triton X-100
T1 sequence: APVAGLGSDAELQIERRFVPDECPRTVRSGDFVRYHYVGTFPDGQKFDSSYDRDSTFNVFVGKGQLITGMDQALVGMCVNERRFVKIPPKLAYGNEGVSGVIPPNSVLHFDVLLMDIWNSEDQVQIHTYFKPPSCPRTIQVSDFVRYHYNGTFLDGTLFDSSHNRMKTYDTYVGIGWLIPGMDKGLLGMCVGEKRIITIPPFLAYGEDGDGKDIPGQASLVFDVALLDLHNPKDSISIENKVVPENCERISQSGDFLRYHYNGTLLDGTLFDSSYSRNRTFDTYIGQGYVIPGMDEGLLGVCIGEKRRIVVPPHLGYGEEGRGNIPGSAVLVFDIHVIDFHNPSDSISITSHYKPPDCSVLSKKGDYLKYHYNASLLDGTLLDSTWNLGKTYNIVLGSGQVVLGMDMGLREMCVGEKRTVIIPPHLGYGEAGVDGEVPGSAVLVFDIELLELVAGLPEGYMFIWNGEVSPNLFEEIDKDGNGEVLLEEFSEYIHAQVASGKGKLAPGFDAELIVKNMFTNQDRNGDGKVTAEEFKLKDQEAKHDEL

Protein sequences, listed by entry. Tags and fused reporters are not part of them. Residues count along the entry.
UniProt P11021, residues 19-654: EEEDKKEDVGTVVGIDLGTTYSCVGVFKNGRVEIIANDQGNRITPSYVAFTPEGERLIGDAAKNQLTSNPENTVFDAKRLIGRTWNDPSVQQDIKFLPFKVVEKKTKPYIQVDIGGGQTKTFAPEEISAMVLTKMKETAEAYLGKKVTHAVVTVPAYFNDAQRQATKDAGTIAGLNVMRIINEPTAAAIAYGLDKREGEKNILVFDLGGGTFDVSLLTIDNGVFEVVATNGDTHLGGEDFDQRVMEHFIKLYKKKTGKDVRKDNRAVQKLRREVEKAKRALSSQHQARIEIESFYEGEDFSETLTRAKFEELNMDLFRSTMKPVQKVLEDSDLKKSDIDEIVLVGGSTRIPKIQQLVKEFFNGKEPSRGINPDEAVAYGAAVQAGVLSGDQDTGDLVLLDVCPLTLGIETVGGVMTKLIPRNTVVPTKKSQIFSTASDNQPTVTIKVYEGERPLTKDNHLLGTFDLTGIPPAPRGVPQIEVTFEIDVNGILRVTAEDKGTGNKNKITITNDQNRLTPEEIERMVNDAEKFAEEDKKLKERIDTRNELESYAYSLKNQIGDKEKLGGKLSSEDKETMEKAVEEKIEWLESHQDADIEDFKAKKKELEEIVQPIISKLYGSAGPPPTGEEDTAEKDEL

[2] = biological target: Flag-HA-labeled BiP (BiP-HA) (human) (UniProt P11021); experiment: affinity purification with mass spectrometry; HA antibody co-immunoprecipitation from lysate of T98G cells expressing BiP-HA or EGFP-HA; the elution identified by LC-MS/MS

binding [1]: binds
Molecule: binding immunoglobulin protein (BiP), endogenous (from UniProt P11021 19-654)

binding [2]: binds
B1: human recombinant protein FKBP9 (TP322307, Origene) (natural protein, UniProt O95302 25-570, looked up)
chain: T1 sequence
notes: also called purified FKBP9; source: bought: Origene (TP322307)
